Some of these results come from one statement about several compounds together.
What was measured:
α-MHC = assay: determination of the expression level of α-MHC (MYH6 ELISA kit) in H9C2 cells; assay type: cell-based, Rat; settings: 48 hours treatment at the concentrations of Table 3, relative to the DMSO group set as 100%, Figure 1
[1] = system: transgenic zebrafish (Tg-fli1-eGFP); assay: heart cryoinjury (frozen wound) model, myocardial regeneration of zebrafish; assay type: in vivo; settings: fed with 12.5 µg/g daily for 7 days after cryoinjury, heart collected in day 8; compared to vehicle (27%); Figure 2

Compound | expression level of α-MHC (α-MHC) | percentage of the cryoinjury area [1]
CC(=O)Oc1ccc(/C=C/C(=O)O)cc1 [Compound 28] | increased | obviously decreased
O=C(O)/C=C/c1ccc(OC(=O)Cc2cccc(Cl)c2)c(OC(=O)Cc2cccc(Cl)c2)c1 [Compound 10] | increased | obviously decreased
COC(=O)CCCCC(=O)Oc1ccc(/C=C/C(=O)O)cc1 [Compound 5] | increased | obviously decreased
C=CCOc1ccc(/C=C/C(=O)c2sccc2N)c(OCC=C)c1 [Compound 40] | increased | obviously decreased
O=C(/C=C/c1ccccn1)c1ccccn1 [Compound 43] | increased | obviously decreased
O=C(O)/C=C/c1ccc(NC(=O)c2ccccc2O)cc1 [Compound 33] | increased | obviously decreased
CC(=O)Oc1ccccc1C(=O)N(C(=O)c1ccccc1OC(C)=O)c1ccc(/C=C/C(=O)O)cc1 [Compound 15] | increased | obviously decreased
Nc1ccc(/C=C/C(=O)O)cc1 [Compound 31] | increased | obviously decreased
COC(=O)/C=C/C(=O)Nc1ccc(/C=C/C(=O)O)cc1 [Compound 14] | increased | obviously decreased
COC(=O)/C=C/c1ccc(OC(=O)Cc2cccc(Cl)c2)c(OC(=O)Cc2cccc(Cl)c2)c1 [Compound 11] | increased | obviously decreased
Cc1ccc(/C=C/C(=O)c2cccc(NC(=O)/C=C/c3ccc4c(c3)OCO4)c2)s1 [Compound 35] | increased | obviously decreased
COc1cc(/C=C/C(=O)O)ccc1O [Compound 25] |  | obviously decreased
COc1cc(/C=C/C(=O)O)cc(OC)c1O [Compound 26] | increased | obviously decreased
O=C(O)/C=C/c1ccc(NC(=O)CCCC(=O)O)cc1 [Compound 13] | increased | obviously decreased
O=C(O)/C=C/c1ccc(OC(=O)CCCC(=O)O)c(O)c1 [Compound 2] | increased | obviously decreased
CC(=O)Oc1ccccc1C(=O)Oc1ccc(/C=C/C(=O)O)cc1O [Compound 8] | increased | obviously decreased
O=C(O)/C=C/c1ccc(OC(=O)c2cccnc2)cc1 [Compound 30] | increased | obviously decreased
O=C(/C=C/c1ccccc1)OCc1ccc(O)cc1 [Compound 21] | increased | obviously decreased
O=C(O)/C=C/c1ccncc1 [Compound 36] | increased | obviously decreased
COC(=O)/C=C/c1ccc(OC(=O)c2ccccc2OC(C)=O)c(OC(=O)c2ccccc2OC(C)=O)c1 [Compound 29] | increased | obviously decreased
CC(=O)Oc1ccccc1C(=O)Oc1ccc(/C=C/C(=O)O)cc1 [Compound 7] | increased | obviously decreased
Cc1ccc(/C=C/C(=O)c2sc(N)nc2C)s1 [Compound 44] | increased | obviously decreased

Compound | expression level of α-MHC (α-MHC) | percentage of the cryoinjury area [1]
O=C(/C=C/c1ccc(O)c(O)c1/C=C/c1ccc(O)c(O)c1)O[C@H](Cc1ccc(O)c(O)c1)C(=O)O [Compound 45] | increased | obviously decreased
O=C(/C=C/c1ccsc1)c1ccc(O)cc1 [Compound 41] | increased | obviously decreased
COC(=O)/C=C/c1ccccc1 [Compound 17] | increased | obviously decreased
CC(C)(C)OC(=O)NCCCC(=O)Oc1ccc(/C=C/C(=O)O)cc1OC(=O)CCCNC(=O)OC(C)(C)C [Compound 12] | increased | obviously decreased
O=C(/C=C/c1ccc2c(c1)OCO2)Nc1ccc(O)cc1 [Compound 34] | increased | obviously decreased
O=C(O)/C=C/C(=O)Nc1ccc(/C=C/C(=O)O)cc1 [Compound 32] | increased | obviously decreased
O=C(O)/C=C/c1ccsc1 [Compound 39] | increased | obviously decreased
O=C(O)/C=C/c1ccc(O)cc1 [Compound 22] | increased | obviously decreased
O=C(O)/C=C/c1ccc(OC(=O)CCCC(=O)O)cc1 [Compound 1] | increased | obviously decreased
CC(=O)C(=O)Oc1ccc(/C=C/C(=O)O)cc1 [Compound 27] | increased | obviously decreased
O=C(/C=C/c1ccc(O)c(O)c1)O[C@H](Cc1ccc(O)c(O)c1)C(=O)O [Compound 46] | increased | obviously decreased
O=C(O)/C=C/c1ccc(OC(=O)CCCC(=O)O)c(OC(=O)CCCC(=O)O)c1 [Compound 3] | increased | obviously decreased
O=C(O)/C=C/c1ccccc1 [Compound 16] | increased | obviously decreased
O=C(O)/C=C/c1cccs1 [Compound 38] |  | obviously decreased
COC(=O)CCCCC(=O)Oc1ccc(/C=C/C(=O)O)cc1OC(=O)CCCCC(=O)OC [Compound 6] | increased | obviously decreased
O=C(/C=C/c1ccc(O)c(O)c1)O[C@@H](C(=O)O)[C@@H](O)C(=O)O [Compound 19] | increased | obviously decreased
O=C(O)/C=C/c1ccc(OC(=O)Cc2cccc(Cl)c2)cc1 [Compound 9] | increased | obviously decreased
O=C(/C=C/c1ccc2c(c1)OCO2)n1cccc1 [Compound 42] | increased | obviously decreased
O=C(O)/C=C/c1cccnc1 [Compound 37] | increased | obviously decreased
O=C(O)/C=C/c1ccc(OC(=O)CCCCC(=O)O)cc1 [Compound 4] | increased | obviously decreased
COC(=O)/C=C/c1ccc(O)c(O)c1 [Compound 18] | increased | obviously decreased
O=C(O)/C=C/c1ccc(O)cc1O [Compound 24] | increased | obviously decreased
